From PubChem BioAssay AID248 (DTP/NCI, 2004)
The list is a part of this screen's results and no random one: it gathers tests that were run many times, whatever their T/C, doses with no T/C, and many T/C values between a quarter and a half above the control. Further doses and runs are listed elsewhere. T/C is the treated group as % of the vehicle group. Some doses have a count of surviving animals in place of a T/C: the source files T/C as zero there, which appears to mark a toxic dose or a test without result, not a measured value. Some survivor counts are full or nearly so, which does not show that the dose was tolerated: survival well below the control is almost never listed, so the zero probably covers shortened survival too. Counts of survivors are from the toxicity check (mostly the fifth day) where no day follows; animals may have died later. Schedules are NCI's codes, read here as Q, the interval in days (D) or hours (H), X, the number of doses. Some schedule codes hold Z or #, which are not explained here. Some molecules as drawn cover several salts, stereoisomers or complexes of the source; a dose is that of the sample tested. Some entries were tested several times; the values are given in rising order. Where survival is the endpoint, this PubChem deposit counts one and a half times the control or more as active, and values a quarter to a half above the control carry no call in these data; other NCI protocols may use other cut-offs. Some T/C values carry the count of animals alive at the toxicity check (mostly the fifth day); where none is given, no animal had died by that day.

Tested on: L1210 leukemia ip in BDF1 mice, survival T/C
Assay: NCI In Vivo Anticancer Drug Screen. Data for tumor model L1210 Leukemia (intraperitoneal) in B6D2F1 (BDF1) mice
Conditions: higher T/C = longer survival

Structure (SMILES): COc1ccc2[nH]c3c(C)c4ccncc4c(C)c3c2c1
- T/C (T/C endpoint: mean survival time, dose: 6.25 mg/kg/injection, schedule: Q01DX009 (ip), vehicle: citric acid): 146 % of control
- T/C (T/C endpoint: mean survival time, dose: 6.25 mg/kg/injection, schedule: Q01DX009 (ip), vehicle: clinical formulation): 142 % of control
- T/C (T/C endpoint: mean survival time, dose: 12.0 mg/kg/injection, schedule: Q01DX Z (ip), vehicle: saline): 129 % of control
- T/C (T/C endpoint: mean survival time, dose: 12.5 mg/kg/injection, schedule: Q01DX009 (ip), vehicle: clinical formulation): 146 % of control
- T/C (T/C endpoint: mean survival time, dose: 18.75 mg/kg/injection, schedule: Q04DX003 (ip), vehicle: clinical formulation): 134 % of control
- T/C (T/C endpoint: mean survival time, dose: 18.75 mg/kg/injection, schedule: Q04DX003 (ip), vehicle: lactic acid): 129 % of control
- T/C (T/C endpoint: mean survival time, dose: 25.0 mg/kg/injection, schedule: Q01DX009 (ip), vehicle: clinical formulation): 146 % of control
- T/C (T/C endpoint: mean survival time, dose: 25.0 mg/kg/injection, schedule: Q01DX Z (ip), vehicle: saline): 117, 132, 155, 160 % of control
- T/C (T/C endpoint: mean survival time, dose: 25.0 mg/kg/injection, schedule: Q01DX Z (oral), vehicle: saline): 127 % of control
- T/C (T/C endpoint: mean survival time, dose: 25.0 mg/kg/injection, schedule: Q04DX003 (ip), vehicle: citric acid): 134 and 142 % of control
- T/C (T/C endpoint: mean survival time, dose: 25.0 mg/kg/injection, schedule: Q04DX003 (ip), vehicle: clinical formulation): 143 % of control
- T/C (T/C endpoint: mean survival time, dose: 37.5 mg/kg/injection, schedule: Q04DX003 (ip), vehicle: clinical formulation): 144 % of control
- T/C (T/C endpoint: mean survival time, dose: 37.5 mg/kg/injection, schedule: Q04DX003 (ip), vehicle: water): 134 % of control
- T/C (T/C endpoint: mean survival time, dose: 40.0 mg/kg/injection, schedule: Q01DX009 (ip), vehicle: Klucel (hydroxypropylcellulose) (HPC)): 135 % of control
- survivor count (T/C endpoint: mean survival time, dose: 50.0 mg/kg/injection, schedule: Q01DX009 (ip), vehicle: citric acid): 10 of 10
- survivor count (T/C endpoint: mean survival time, dose: 50.0 mg/kg/injection, schedule: Q01DX009 (ip), vehicle: clinical formulation): 10 of 10
- T/C (T/C endpoint: mean survival time, dose: 50.0 mg/kg/injection, schedule: Q01DX Z (ip), vehicle: saline): 129, 138, 170, 192 % of control
- T/C (T/C endpoint: mean survival time, dose: 50.0 mg/kg/injection, schedule: Q01DX Z (oral), vehicle: saline): 133 % of control
- T/C (T/C endpoint: mean survival time, dose: 75.0 mg/kg/injection, schedule: Q01DX001 (ip), vehicle: other): 135 and 139 % of control [9 of 10 alive]
- T/C (T/C endpoint: mean survival time, dose: 75.0 mg/kg/injection, schedule: Q01DX001 (oral), vehicle: other): 130 % of control
- T/C (T/C endpoint: mean survival time, dose: 75.0 mg/kg/injection, schedule: Q01DX Z (ip), vehicle: carboxymethylcellulose (CMC)): 132 % of control
- T/C (T/C endpoint: mean survival time, dose: 75.0 mg/kg/injection, schedule: Q01DX Z (ip), vehicle: saline): 101, 135, 140, 166 % of control
- T/C (T/C endpoint: mean survival time, dose: 75.0 mg/kg/injection, schedule: Q01DX Z (oral), vehicle: saline): 131 and 131 % of control [4 of 6 alive]
- T/C (T/C endpoint: mean survival time, dose: 75.0 mg/kg/injection, schedule: Q04DX003 (oral), vehicle: other): 147 % of control
- survivor count (T/C endpoint: mean survival time, dose: 80.0 mg/kg/injection, schedule: Q01DX009 (ip), vehicle: Klucel (hydroxypropylcellulose) (HPC)): 5 of 6
- survivor count (T/C endpoint: mean survival time, dose: 100.0 mg/kg/injection, schedule: Q01DX009 (ip), vehicle: citric acid): 2 of 10
- survivor count (T/C endpoint: mean survival time, dose: 100.0 mg/kg/injection, schedule: Q01DX009 (ip), vehicle: clinical formulation): 3 of 10
- survivor count (T/C endpoint: mean survival time, dose: 100.0 mg/kg/injection, schedule: Q04DX003 (ip), vehicle: citric acid): 9 of 10
- survivor count (T/C endpoint: mean survival time, dose: 150.0 mg/kg/injection, schedule: Q01DX001 (ip), vehicle: other): 3 of 10 and 4 of 10
- T/C (T/C endpoint: mean survival time, dose: 150.0 mg/kg/injection, schedule: Q01DX001 (oral), vehicle: other): 134 and 148 % of control
- T/C (T/C endpoint: mean survival time, dose: 150.0 mg/kg/injection, schedule: Q01DX001 (oral), vehicle: saline): 128 % of control
- survivor count (T/C endpoint: mean survival time, dose: 150.0 mg/kg/injection, schedule: Q01DX Z (ip), vehicle: carboxymethylcellulose (CMC)): 6 of 6
- survivor count (T/C endpoint: mean survival time, dose: 150.0 mg/kg/injection, schedule: Q04DX003 (ip), vehicle: clinical formulation): 8 of 10
- survivor count (T/C endpoint: mean survival time, dose: 150.0 mg/kg/injection, schedule: Q04DX003 (ip), vehicle: lactic acid): 8 of 10
- survivor count (T/C endpoint: mean survival time, dose: 170.0 mg/kg/injection, schedule: Q01DX Z (oral), vehicle: saline): 6 of 6
- survivor count (T/C endpoint: mean survival time, dose: 200.0 mg/kg/injection, schedule: Q01DX009 (ip), vehicle: citric acid): 0 of 10
- survivor count (T/C endpoint: mean survival time, dose: 200.0 mg/kg/injection, schedule: Q01DX009 (ip), vehicle: clinical formulation): 0 of 10
- survivor count (T/C endpoint: mean survival time, dose: 200.0 mg/kg/injection, schedule: Q04DX003 (ip), vehicle: citric acid): 4 of 10
- survivor count (T/C endpoint: mean survival time, dose: 200.0 mg/kg/injection, schedule: Q04DX003 (ip), vehicle: clinical formulation): 7 of 10
- T/C (T/C endpoint: mean survival time, dose: 225.0 mg/kg/injection, schedule: Q01DX001 (ip), vehicle: saline): 131 % of control
- survivor count (T/C endpoint: mean survival time, dose: 255.0 mg/kg/injection, schedule: Q01DX Z (ip), vehicle: saline): 6 of 7
- T/C (T/C endpoint: mean survival time, dose: 300.0 mg/kg/injection, schedule: Q01DX001 (oral), vehicle: saline): 138 % of control
- T/C (T/C endpoint: mean survival time, dose: 340.0 mg/kg/injection, schedule: Q01DX001 (ip), vehicle: saline): 143 % of control
- survivor count (T/C endpoint: mean survival time, dose: 385.0 mg/kg/injection, schedule: Q01DX Z (ip), vehicle: saline): 7 of 7
- survivor count (T/C endpoint: mean survival time, dose: 575.0 mg/kg/injection, schedule: Q01DX Z (ip), vehicle: saline): 4 of 7
- T/C (T/C endpoint: mean survival time, dose: 600.0 mg/kg/injection, schedule: Q01DX001 (oral), vehicle: saline): 139 % of control
- T/C (T/C endpoint: median survival time, dose: 4.0 mg/kg/injection, schedule: Q01DX009 (ip), vehicle: water): 133 % of control
- T/C (T/C endpoint: median survival time, dose: 8.0 mg/kg/injection, schedule: Q01DX009 (ip), vehicle: other): 133 % of control
- T/C (T/C endpoint: median survival time, dose: 8.0 mg/kg/injection, schedule: Q01DX009 (ip), vehicle: water): 138 % of control
- T/C (T/C endpoint: median survival time, dose: 16.0 mg/kg/injection, schedule: Q01DX009 (sc), vehicle: water): 133 % of control
- T/C (T/C endpoint: median survival time, dose: 16.0 mg/kg/injection, schedule: Q03HX008 (sc), vehicle: water): 138 % of control
- T/C (T/C endpoint: median survival time, dose: 32.0 mg/kg/injection, schedule: Q01DX001 (sc), vehicle: water): 133 % of control
- survivor count (T/C endpoint: median survival time, dose: 32.0 mg/kg/injection, schedule: Q03HX008 (oral), vehicle: other): 2 of 10
- survivor count (T/C endpoint: median survival time, dose: 64.0 mg/kg/injection, schedule: Q01DX009 (ip), vehicle: other): 9 of 10
- survivor count (T/C endpoint: median survival time, dose: 64.0 mg/kg/injection, schedule: Q01DX009 (ip), vehicle: water): 9 of 10
- survivor count (T/C endpoint: median survival time, dose: 64.0 mg/kg/injection, schedule: Q01DX009 (oral), vehicle: other): 9 of 10
- survivor count (T/C endpoint: median survival time, dose: 64.0 mg/kg/injection, schedule: Q03HX008 (oral), vehicle: other): 7 of 10
- survivor count (T/C endpoint: median survival time, dose: 64.0 mg/kg/injection, schedule: Q03HX008 (sc), vehicle: water): 7 of 10
- T/C (T/C endpoint: median survival time, dose: 128.0 mg/kg/injection, schedule: Q01DX001 (sc), vehicle: water): 127 % of control [9 of 10 alive]
- T/C (T/C endpoint: median survival time, dose: 256.0 mg/kg/injection, schedule: Q01DX001 (oral), vehicle: other): 127 % of control [8 of 10 alive]

Structure (SMILES): NC(=S)N/N=C/c1ccc(F)cc1
- survivor count (T/C endpoint: mean survival time, dose: 240.0 mg/kg/injection, schedule: Q01DX Z (oral), vehicle: methylcellulose (MC)): 0 of 6
- survivor count (T/C endpoint: mean survival time, dose: 480.0 mg/kg/injection, schedule: Q01DX Z (oral), vehicle: methylcellulose (MC)): 0 of 6

Structure (SMILES): COc1ccc(SC2=C(N(C)C(C)=O)C(=O)c3ccccc3C2=O)cc1
- survivor count (T/C endpoint: mean survival time, dose: 45.0 mg/kg/injection, schedule: Q01DX009 (ip), vehicle: Klucel (hydroxypropylcellulose) (HPC)): 0 of 6
- survivor count (T/C endpoint: mean survival time, dose: 60.0 mg/kg/injection, schedule: Q01DX001 (ip), vehicle: Klucel (hydroxypropylcellulose) (HPC)): 3 of 6
- survivor count (T/C endpoint: mean survival time, dose: 70.0 mg/kg/injection, schedule: Q01DX009 (ip), vehicle: Klucel (hydroxypropylcellulose) (HPC)): 0 of 6
- survivor count (T/C endpoint: mean survival time, dose: 75.0 mg/kg/injection, schedule: Q01DX001 (ip), vehicle: carboxymethylcellulose (CMC)): 3 of 6
- survivor count (T/C endpoint: mean survival time, dose: 105.0 mg/kg/injection, schedule: Q01DX009 (ip), vehicle: Klucel (hydroxypropylcellulose) (HPC)): 0 of 6
- survivor count (T/C endpoint: mean survival time, dose: 150.0 mg/kg/injection, schedule: Q01DX001 (ip), vehicle: carboxymethylcellulose (CMC)): 2 of 6
- survivor count (T/C endpoint: mean survival time, dose: 300.0 mg/kg/injection, schedule: Q01DX001 (ip), vehicle: carboxymethylcellulose (CMC)): 1 of 6

Structure (SMILES): Cc1ccc(S(=O)(=O)N(c2ccccc2)C(C)C(=O)c2ccccc2)cc1 (stereo not given)
- survivor count (T/C endpoint: mean survival time, dose: 50.0 mg/kg/injection, schedule: Q01DX001 (ip), vehicle: other): 0 of 4
